The test in a line: qHTS Assay for Lipid Storage Modulators in Drosophila S3 Cells.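 On cell number change: cells counted by Cell Tracker Red CMTPX staining in the red channel.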 The settings on record: BODIPY lipid droplet fluorescence, 18-24 h; for cell number change: measured here: cell count max response, cells fed with added oleic acid. The method, boiled down: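 Laser-scanning cytometry quantifies lipid droplet accumulation (500–530 nm total intensity; droplet/cell object ratio) in oleic acid-fed (400 uM added) Drosophila S3 cells treated with a concentration series. 20 uM Triacsin C defined 100% inhibition.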
(qHTS replaces the single test concentration by a dilution series.)

Where [1] appears, read: measured here: lipid fluorescence (Fed channel) AC50, cells fed with added oleic acid.
[2] abbreviates: measured here: cell number channel AC50, cells fed with added oleic acid.

This is one part of the list. The main result of the screen is listed elsewhere. These columns were measured beside it and carry no call. The list favours compounds with an active or inconclusive main result. Words in brackets tell the shape of the fitted curve; partial curves, single points and poor fits give uncertain potencies.

A word on the AC50: it is the concentration giving half of the maximal activity seen. Read a low AC50 as activity at low concentration. As for `O=C(CN1C(=O)c2cccc3cccc1c23)NCC1CCCO1` (stereo unspecified), the cell number change worked out at 2.97%. For the same compound, the AC50 under setting [1] is 29.1 µM [rising, single point].
For the compound `CCOc1ccc(/C=C(\C#N)C(=O)Nc2ccccn2)cc1`, the cell number change was -12.6%. Besides, the AC50 under setting [1] is 18.4 µM [falling, single point].
Regarding `CCN1CCN(CCCN(Cc2ccco2)C(=S)Nc2ccc(Cl)c(C)c2)CC1`, the cell number change was -9.33%.
With `COc1ccccc1C(=O)N/N=C(\C)CC(=O)Nc1ccccn1`, the cell number change stood at 5.86%.
On to `COc1cccc(N2CC(C(=O)Nc3nnc(SCC(=O)NCC4CCCO4)s3)CC2=O)c1` (stereo unspecified), for which the cell number change was -40.8%. The AC50 under setting [2] was 0.58 µM [falling, full curve]. The AC50 under setting [1] is 0.517 µM [falling, full curve].
Take `CC1CCCCC1NC(=O)Cn1nc(-c2ccccc2)ccc1=O` (stereo unspecified): the AC50 under setting [1] is 6.51 µM [falling, single point].
With `O=C(O)C1CCN(C(=O)COc2ccc3c4c(c(=O)oc3c2)CCC4)CC1`, the cell number change came to 11.9%. The AC50 under setting [1] is 0.0058 µM [falling, full curve, poor fit].
`N=C1C(c2nc(-c3ccc(F)cc3)cs2)=C(O)CN1CCCN1CCOCC1`: the cell number change is -21.3%. Also, the AC50 under setting [1] was 29.1 µM [falling, single point].
On to `COc1ccc2[nH]c3c(c2c1)CCn1c-3nc2sc(C(=O)Nc3ccccc3)c(C)c2c1=O`, for which the AC50 under setting [2] was 6.51 µM [rising, single point] and the AC50 under setting [1] is 6.51 µM [rising, partial curve].
Take `Cc1ccc(NC(=O)CSc2nc3ccccc3c3nc(CCc4c(C)n[nH]c4C)nn23)cc1F`: the cell number change came out at 7.35%. In addition, the AC50 under setting [2] was 0.116 µM [rising, full curve]. Besides, under setting [1], the AC50 was 20.6 µM [falling, single point].
As to `NC(=O)c1ccc(CN2CCC(Cc3ccccc3)CC2)cc1`, the cell number change came to 139%.
`C=CCc1cccc2cc(C(=O)N3CCOCC3)c(=O)oc12`: the cell number change was found to be 26.1%. In addition, under setting [1], the AC50 is 6.51 µM [rising, single point].
As to `CC(=O)Nc1ccc(S(=O)(=O)N2CCn3cccc3C2C)cc1` (stereo unspecified), the cell number change was -13.6%. Under setting [2], the AC50 is 2.59 µM [falling, partial curve]. Also, the AC50 under setting [1] was 0.058 µM [falling, full curve, poor fit].
On to `COc1ccc(N2CCN(C3CCN(S(=O)(=O)c4ccc(F)cc4)CC3)CC2)cc1`, for which the cell number change is -0.288%. In addition, under setting [1], the AC50 was 3.66 µM [falling, partial curve, poor fit].
Consider `CCCCOc1nc2c(c(=O)n(C)c(=O)n2C)n1C`, for which the cell number change is -9.58%.
For `CCOC(=O)N1CCc2c(sc(N)c2C#N)C1`, the cell number change stood at 15.6%. In addition, the AC50 under setting [1] was 0.259 µM [rising, full curve, poor fit].
For `O=C(NCC(c1ccco1)N1CCCCC1)c1ccc(OCc2ccccc2)cc1` (stereo unspecified), the cell number change is 6.85%. Further, the AC50 under setting [2] was 4.61 µM [falling, single point].
In the case of `COCCNC(=O)C(OC(=O)c1ccco1)c1ccccc1Cl` (stereo unspecified), the cell number change was -7.46%.
With `N#Cc1c(/N=C/c2cccs2)sc2c1CCCCC2`, the cell number change is -44.1%. In addition, the AC50 under setting [2] is 20.6 µM [falling, partial curve, poor fit].
On to `N#CCC(=O)Nc1ccc(C(=O)OCc2ccccc2Oc2ccccc2)cc1`, for which the cell number change was -28.6%.
Take `c1ccc(-c2nc(-c3ccco3)cs2)nc1`: the cell number change was -23.1%. The AC50 under setting [1] is 3.66 µM [rising, single point].
Regarding `Cc1cc(C)c(C#N)c(N2CCN(S(=O)(=O)Cc3ccccc3)CC2)n1`, the cell number change was 51%. Also, under setting [2], the AC50 was 12.6 µM [rising, single point].
Turning to `COc1ccc(OCC(=O)Nc2ccc(N3CCOCC3)cc2)c([N+](=O)[O-])c1`, the cell number change worked out at 17.6%. The AC50 under setting [2] was 0.326 µM [rising, full curve, poor fit].
In the case of `Cc1nn(Cc2ccccc2)c(C)c1NC(=O)CCC(=O)O`, the cell number change is -71.4%. Further, under setting [2], the AC50 is 32.6 µM [falling, single point]. Besides, the AC50 under setting [1] is 5.8 µM [falling, partial curve].
For `O=C1COc2ccc(S(=O)(=O)N3CCCC3)cc2N1`, the cell number change is 4.78%. Under setting [1], the AC50 was 6.51 µM [rising, single point].
Regarding `CCOc1cc(N2CCOCC2)c(OCC)cc1NC(=O)CN1C(=O)N(C)C2(CCCCC2)C1=O`, the cell number change amounted to 12.7%.
In the case of `CN(C)CCNc1nc(-c2ccccc2)c2c(c1C#N)CC(C)(C)OC2`, the AC50 is 0.146 µM [rising, full curve, poor fit] under setting [2] and 6.51 µM [rising, single point] under setting [1].
As to `COc1n[nH]c(C(=O)Nc2cc(Cl)ccc2Cl)c1[N+](=O)[O-]`, the cell number change is -47.2%. Moreover, under setting [2], the AC50 is 23.1 µM [falling, single point]. Further, the AC50 under setting [1] is 23.1 µM [falling, single point].
Turning to `Cc1ccc(C2=[N+]([O-])C3(CCCCC/C3=N\NC(N)=O)N(O)C2(C)C)o1` (stereo unspecified), the cell number change is -47.7%. Further, the AC50 under setting [2] is 5.8 µM [falling, full curve]. In addition, the AC50 under setting [1] was 5.8 µM [falling, full curve].
With `COC(=O)CCn1nnc(-c2ccc(C(C)C)cc2)n1`, the AC50 under setting [1] was 6.51 µM [falling, single point].
With `COc1ccc(NC(=O)C(=O)c2cn(CC(=O)N3CCCC3)c3ccccc23)cc1`, the cell number change was -16.5%. Under setting [1], the AC50 is 0.58 µM [falling, single point].
For the compound `CCN(CC)S(=O)(=O)c1ccc(N2CCN(C)CC2)c(NC(=O)Nc2ccccc2F)c1`, the cell number change is 23.9%. In addition, the AC50 under setting [1] is 29.1 µM [rising, single point].
As for `O=C(CSc1ccc(/C=N/NC(=O)c2cccc(F)c2)o1)Nc1ccccc1`, the AC50 under setting [2] is 1.84 µM [rising, partial curve, poor fit].
On to `CC(C)(C)OC(=O)N1CCC(c2c(C(=O)N3CCN(C(=O)c4ccco4)CC3)cnn2-c2ccc(F)cc2F)CC1`, for which the cell number change was -13%. Also, under setting [1], the AC50 is 29.1 µM [falling, single point].
For `Cc1cc(NC(=O)CCCC(=O)N(CC(=O)NC2CCCCC2)c2ccccc2)no1`, the cell number change is -10%.
Turning to `CC1(C)O[C@@H]2[C@H](O1)[C@@H](CO)O[C@H]2n1c(N2CCCCC2)nc2c(N)ncnc21`, the cell number change is -5.17%.
Regarding `O=S(=O)(c1cc(F)ccc1F)N1CCN(c2ncccn2)CC1`, the cell number change was determined as 9.9%. Besides, the AC50 under setting [2] was 1.46 µM [rising, full curve, poor fit]. Further, the AC50 under setting [1] was 20.6 µM [rising, single point].
For `COc1ccc(Cl)cc1NS(=O)(=O)c1cccc(C(=O)N2CC(C)OC(C)C2)c1` (stereo unspecified), the cell number change was -6.69%. The AC50 under setting [1] is 25.9 µM [falling, single point].
Consider `COc1cc(/C=C2/C(=N)N3OC(C)=CC3=NC2=O)ccc1OCCOc1ccc(C)cc1`, for which the cell number change came out at 8.91%. The AC50 under setting [1] is 6.51 µM [rising, full curve, poor fit].
Consider `COc1ccc(CC(=O)NNc2ncnc3c2cnn3-c2ccccc2)cc1`, for which the cell number change is -29.8%. Moreover, the AC50 under setting [1] was 2.91 µM [rising, partial curve, poor fit].
Take `CCc1ccc(-c2csc(NC(=O)C3=NN(c4ccccc4)C(=O)CC3)n2)cc1`: the cell number change was -1.61%. In addition, under setting [2], the AC50 was 0.651 µM [rising, partial curve, poor fit]. Moreover, the AC50 under setting [1] is 0.92 µM [rising, full curve].
For `CSc1ccc(C(=O)NC2CCSc3ccccc32)cc1` (stereo unspecified), the cell number change came to 2.38%. Further, the AC50 under setting [1] was 6.51 µM [rising, single point].
As for `COc1ccccc1N(CC(=O)NCCSCc1ccco1)S(=O)(=O)c1ccccc1`, the cell number change is -13.2%.
Turning to `Cc1cc(C)nc(SCc2nnc(SCC(=O)Nc3nc(-c4ccccc4)cs3)n2-c2ccccc2)n1`, the cell number change amounted to 55.8%. Also, under setting [2], the AC50 is 29.1 µM [rising, single point]. For the same compound, under setting [1], the concentration at half-maximal activity (AC50) was 6.51 µM [rising, partial curve].
In the case of `Cn1c(=O)c2ncn(CC(=O)Nc3ccc4c5c(cccc35)CC4)c2n(C)c1=O`, under setting [1], the AC50 is 0.116 µM [rising, full curve, poor fit].
Take `COC(=O)c1ccc(Cn2nnc3c(=O)[nH]c(C4CCCN(S(=O)(=O)c5ccccc5Cl)C4)nc32)cc1` (stereo unspecified): the cell number change was -8.26%. In addition, the AC50 under setting [1] is 0.58 µM [rising, single point].
With `Cc1ccc(/C=c2\sc3nc(-c4cccs4)nn3c2=O)o1`, the cell number change was -21%. Besides, the half-maximal activity concentration (AC50) under setting [2] is 0.13 µM [falling, full curve, poor fit]. Moreover, under setting [1], the AC50 was 0.651 µM [falling, full curve, poor fit].
Take `Cc1cc(C)c2c(-n3cccc3)c(C(=O)NNS(=O)(=O)c3ccccc3)sc2n1`: the cell number change turned out to be 7.18%. Further, the AC50 under setting [2] was 0.231 µM [rising, full curve, poor fit].
`Cc1ccc2nc(SC(C)C(=O)NCc3ccco3)[nH]c2c1` (stereo unspecified): the AC50 under setting [1] is 29.1 µM [falling, single point].
With `CCCC1CCC(=NNC(=S)NCCc2ccccc2)CC1` (stereo unspecified), the cell number change worked out at 31.2%. Besides, the half-maximal activity concentration (AC50) under setting [2] is 16.4 µM [rising, single point].
Consider `CCOc1ccc(NC(=O)Nc2ccc(N(C)C(C)=O)cc2)cc1`, for which the cell number change is 3.9%. Besides, the AC50 under setting [2] is 0.146 µM [falling, full curve, poor fit]. The AC50 under setting [1] is 0.00461 µM [falling, full curve, poor fit].
Take `O=C(NCCSc1ccccc1)c1ccc(CN2CCOCC2)cc1`: the cell number change is -8.69%. Moreover, under setting [1], the AC50 is 3.26 µM [falling, single point].
Turning to `COC(=O)C1CCN(CCCOc2ccc(CN3CCN(c4ccc([N+](=O)[O-])cc4)CC3)cc2)CC1`, the cell number change is -17.1%. The AC50 under setting [1] was 0.00517 µM [falling, full curve, poor fit].
Take `COc1cc(NS(=O)(=O)c2cn(C)cn2)cc(OC)c1`: the cell number change was -13.3%. Besides, the AC50 under setting [1] was 0.146 µM [rising, full curve, poor fit].
Turning to `Cc1ccc(CNC(=O)CCS(=O)(=O)c2ccc3nc(C)sc3c2)cc1`, the cell number change is 6.63%.
Regarding `O=C(CCn1c(=O)oc2ccccc21)N1CCOCC1`, the cell number change is -10.3%. For the same compound, the AC50 under setting [1] was 0.00411 µM [rising, full curve, poor fit].
As to `CCN(CC(=O)NC1CCCCCC1)S(=O)(=O)c1ccccc1`, the AC50 reads like this: under setting [2], 2.91 µM [rising, single point]; under setting [1], 2.31 µM [rising, partial curve].
With `Cc1cccc(NC(=S)NN2CCN(C)CC2)c1`, the cell number change is -3.38%. Further, under setting [1], the AC50 is 5.17 µM [falling, single point].
